Results are given in words; binding and its absence hold for the method and conditions named. In cells and extracts the contact can be indirect. These calls come from enrichment with a bait or labelling near it, and not all partners need be listed.

Sequences of proteins named here, by UniProt entry; tags and fusion partners are left off.
UniProt P0AAW9: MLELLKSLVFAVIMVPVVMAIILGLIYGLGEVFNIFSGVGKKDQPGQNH

In the test the target is C-terminal FLAG-tagged AcrZ from Escherichia coli (E. coli) (UniProt P0AAW9). The test can be described thus: affinity purification with mass spectrometry; cell-free synthesised FLAG-tagged bait (approximately 100 pmol) incubated with 200 μl total membrane of the corresponding E. coli KO strain solubilised in 1% LMNG (8 mg/ml) at 4 °C overnight; anti-FLAG M2 magnetic beads 16 h; ten washes (20 mM Tris-HCl pH 8.0, 150 mM NaCl, 0.01% LMNG); eluted with SLS at 90 °C, shotgun MS; enriched at Z-score of at least 2 in two experiments.

B1: MdtF (protein, UniProt P37637 1-1037)
chain: MANYFIDRPVFAWVLAIIMMLAGGLAIMNLPVAQYPQIAPPTITVSATYPGADAQTVEDSVTQVIEQNMNGLDGLMYMSSTSDAAGNASITLTFETGTSPDIAQVQVQNKLQLAMPSLPEAVQQQGISVDKSSSNILMVAAFISDNGSLNQYDIADYVASNIKDPLSRTAGVGSVQLFGSEYAMRIWLDPQKLNKYNLVPSDVISQIKVQNNQISGGQLGGMPQAADQQLNASIIVQTRLQTPEEFGKILLKVQQDGSQVLLRDVARVELGAEDYSTVARYNGKPAAGIAIKLAAGANALDTSRAVKEELNRLSAYFPASLKTVYPYDTTPFIEISIQEVFKTLVEAIILVFLVMYLFLQNFRATIIPTIAVPVVILGTFAILSAVGFTINTLTMFGMVLAIGLLVDDAIVVVENVERVIAEDKLPPKEATHKSMGQIQRALVGIAVVLSAVFMPMAFMSGATGEIYRQFSITLISSMLLSVFVAMSLTPALCATILKAAPEGGHKPNALFARFNTLFEKSTQHYTDSTRSLLRCTGRYMVVYLLICAGMAVLFLRTPTSFLPEEDQGVFMTTAQLPSGATMVNTTKVLQQVTDYYLTKEKDNVQSVFTVGGFGFSGQGQNNGLAFISLKPWSERVGEENSVTAIIQRAMIALSSINKAVVFPFNLPAVAELGTASGFDMELLDNGNLGHEKLTQARNELLSLAAQSPNQVTGVRPNGLEDTPMFKVNVNAAKAEAMGVALSDINQTISTAFGSSYVNDFLNQGRVKKVYVQAGTPFRMLPDNINQWYVRNASGTMAPLSAYSSTEWTYGSPRLERYNGIPSMEILGEAAAGKSTGDAMKFMADLVAKLPAGVGYSWTGLSYQEALSSNQAPALYAISLVVVFLALAALYESWSIPFSVMLVVPLGVVGALLATDLRGLSNDVYFQVGLLTTIGLSAKNAILIVEFAVEMMQKEGKTPIEAIIEAARMRLRPILMTSLAFILGVLPLVISHGAGSGAQNAVGTGVMGGMFAATVLAIYFVPVFFVVVEHLFARFKKA
For the molecule B1, the binding result is reported as “binds”.

These data come from publication PMC11539335.
